Results reported in doi:10.1101/2025.07.28.667281.
These are yes or no findings as the source states them, for the method shown. Binding seen in cells or lysates may run through a third protein. Some binding calls cover weakened binding; strength is not graded here. Sequences can lack the tags named with a protein.

The chains behind the UniProt entries cited, without tags or fusion partners. Where a name states a change or a piece, a line headed by the entry shows the natural chain unless it says otherwise. Residues count along the entry.
UniProt Q3V0T4: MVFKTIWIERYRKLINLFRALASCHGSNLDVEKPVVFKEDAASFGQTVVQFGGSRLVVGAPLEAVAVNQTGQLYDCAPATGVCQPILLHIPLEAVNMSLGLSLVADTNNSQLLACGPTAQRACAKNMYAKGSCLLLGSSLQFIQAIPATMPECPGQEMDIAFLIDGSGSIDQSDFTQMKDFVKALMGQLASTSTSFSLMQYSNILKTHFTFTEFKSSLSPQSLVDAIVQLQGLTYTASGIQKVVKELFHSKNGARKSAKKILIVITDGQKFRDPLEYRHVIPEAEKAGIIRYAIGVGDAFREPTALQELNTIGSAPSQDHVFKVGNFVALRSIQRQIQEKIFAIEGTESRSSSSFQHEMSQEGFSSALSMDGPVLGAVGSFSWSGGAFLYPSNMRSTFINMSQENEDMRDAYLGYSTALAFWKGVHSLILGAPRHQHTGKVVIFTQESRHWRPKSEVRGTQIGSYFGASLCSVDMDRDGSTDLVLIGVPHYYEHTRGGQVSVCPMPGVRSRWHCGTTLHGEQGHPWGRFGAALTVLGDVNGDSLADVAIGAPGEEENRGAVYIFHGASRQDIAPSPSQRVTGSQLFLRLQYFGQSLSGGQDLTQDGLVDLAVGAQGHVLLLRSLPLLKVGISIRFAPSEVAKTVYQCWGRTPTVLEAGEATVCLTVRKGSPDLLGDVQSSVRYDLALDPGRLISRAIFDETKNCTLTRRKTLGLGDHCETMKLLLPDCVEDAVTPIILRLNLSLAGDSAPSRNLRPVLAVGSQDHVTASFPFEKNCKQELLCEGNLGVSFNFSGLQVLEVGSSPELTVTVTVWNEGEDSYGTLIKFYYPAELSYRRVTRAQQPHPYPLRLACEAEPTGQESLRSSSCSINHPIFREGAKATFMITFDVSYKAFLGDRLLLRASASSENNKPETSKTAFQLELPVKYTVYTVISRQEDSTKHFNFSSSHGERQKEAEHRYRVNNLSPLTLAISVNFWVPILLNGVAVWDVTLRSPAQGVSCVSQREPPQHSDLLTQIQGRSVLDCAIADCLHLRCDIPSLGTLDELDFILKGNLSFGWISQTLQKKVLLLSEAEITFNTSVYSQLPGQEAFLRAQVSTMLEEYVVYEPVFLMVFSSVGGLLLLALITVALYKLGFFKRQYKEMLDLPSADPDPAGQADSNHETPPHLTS
UniProt P11835, residues 24-771: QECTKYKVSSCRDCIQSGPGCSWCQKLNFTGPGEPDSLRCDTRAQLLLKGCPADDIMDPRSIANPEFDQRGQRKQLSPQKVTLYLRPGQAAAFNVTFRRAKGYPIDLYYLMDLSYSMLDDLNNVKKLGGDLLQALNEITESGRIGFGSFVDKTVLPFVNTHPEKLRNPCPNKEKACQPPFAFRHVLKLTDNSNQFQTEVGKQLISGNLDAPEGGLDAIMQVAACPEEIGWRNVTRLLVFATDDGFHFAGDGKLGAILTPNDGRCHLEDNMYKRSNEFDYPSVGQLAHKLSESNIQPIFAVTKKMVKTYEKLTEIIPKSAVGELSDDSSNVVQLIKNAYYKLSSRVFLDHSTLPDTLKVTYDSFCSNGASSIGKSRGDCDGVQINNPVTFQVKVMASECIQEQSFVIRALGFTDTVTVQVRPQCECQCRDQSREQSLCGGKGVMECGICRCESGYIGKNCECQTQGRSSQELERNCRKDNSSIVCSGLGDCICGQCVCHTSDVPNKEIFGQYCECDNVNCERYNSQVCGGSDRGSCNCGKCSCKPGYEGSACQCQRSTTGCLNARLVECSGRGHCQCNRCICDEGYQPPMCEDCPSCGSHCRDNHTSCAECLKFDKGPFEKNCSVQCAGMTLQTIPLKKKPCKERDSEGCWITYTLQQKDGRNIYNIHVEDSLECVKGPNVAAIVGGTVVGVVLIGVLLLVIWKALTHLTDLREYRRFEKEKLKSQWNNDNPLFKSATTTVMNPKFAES
UniProt P24063: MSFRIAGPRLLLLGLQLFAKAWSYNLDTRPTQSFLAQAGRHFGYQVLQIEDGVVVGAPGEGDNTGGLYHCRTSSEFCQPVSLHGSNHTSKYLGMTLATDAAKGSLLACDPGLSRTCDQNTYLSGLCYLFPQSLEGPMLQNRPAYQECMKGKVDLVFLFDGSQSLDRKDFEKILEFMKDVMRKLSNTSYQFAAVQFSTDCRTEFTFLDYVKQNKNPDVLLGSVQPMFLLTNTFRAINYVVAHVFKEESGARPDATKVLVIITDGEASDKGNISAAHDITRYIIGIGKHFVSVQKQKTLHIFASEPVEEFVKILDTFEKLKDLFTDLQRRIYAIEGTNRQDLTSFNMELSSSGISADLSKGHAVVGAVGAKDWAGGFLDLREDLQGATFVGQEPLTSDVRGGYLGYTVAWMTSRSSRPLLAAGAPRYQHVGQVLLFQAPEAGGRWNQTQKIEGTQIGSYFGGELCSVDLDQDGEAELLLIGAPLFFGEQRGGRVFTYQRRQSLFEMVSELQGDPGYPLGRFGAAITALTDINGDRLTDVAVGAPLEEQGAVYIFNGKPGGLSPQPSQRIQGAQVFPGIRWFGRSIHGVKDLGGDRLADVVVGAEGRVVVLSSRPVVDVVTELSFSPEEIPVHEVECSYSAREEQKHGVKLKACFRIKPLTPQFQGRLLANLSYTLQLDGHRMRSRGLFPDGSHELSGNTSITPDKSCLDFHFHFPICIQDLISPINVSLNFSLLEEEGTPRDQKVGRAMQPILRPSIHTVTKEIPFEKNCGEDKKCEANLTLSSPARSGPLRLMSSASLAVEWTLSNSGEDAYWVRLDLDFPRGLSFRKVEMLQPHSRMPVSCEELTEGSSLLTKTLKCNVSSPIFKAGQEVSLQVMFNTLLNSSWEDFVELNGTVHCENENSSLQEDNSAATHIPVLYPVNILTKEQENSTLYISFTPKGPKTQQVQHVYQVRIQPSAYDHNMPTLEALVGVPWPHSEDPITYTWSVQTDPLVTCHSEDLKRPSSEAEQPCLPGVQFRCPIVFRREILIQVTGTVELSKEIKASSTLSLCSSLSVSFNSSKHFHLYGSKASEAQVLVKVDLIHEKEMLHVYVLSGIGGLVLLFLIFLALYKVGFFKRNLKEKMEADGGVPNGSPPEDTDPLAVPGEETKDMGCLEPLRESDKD

T1: Flag-tagged EGFL7 (UniProt Q9QXT5)
T1 sequence: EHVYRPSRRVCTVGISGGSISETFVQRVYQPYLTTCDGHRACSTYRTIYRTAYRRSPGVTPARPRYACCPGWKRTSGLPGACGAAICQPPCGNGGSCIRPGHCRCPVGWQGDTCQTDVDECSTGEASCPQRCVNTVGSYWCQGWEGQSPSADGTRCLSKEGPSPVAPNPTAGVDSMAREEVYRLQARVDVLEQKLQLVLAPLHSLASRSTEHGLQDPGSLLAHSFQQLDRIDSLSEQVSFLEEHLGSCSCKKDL

B1: V5-tagged ITGB3 (receptor, UniProt O54890 26-787)
chain: ESNICTTRGVNSCQQCLAVSPVCAWCSDETLSQGSPRCNLKENLLKDNCAPESIEFPVSEAQILEARPLSSKGSGSSAQITQVSPQRIALRLRPDDSKIFSLQVRQVEDYPVDIYYLMDLSFSMKDDLSSIQTLGTKLASQMRKLTSNLRIGFGAFVDKPVSPYMYISPPQAIKNPCYNMKNACLPMFGYKHVLTLTDQVSRFNEEVKKQSVSRNRDAPEGGFDAIMQATVCDEKIGWRNDASHLLVFTTDAKTHIALDGRLAGIVLPNDGHCHIGTDNHYSASTTMDYPSLGLMTEKLSQKNINLIFAVTENVVSLYQNYSELIPGTTVGVLSDDSSNVLQLIVDAYGKIRSKVELEVRDLPEELSLSFNATCLNNEVIPGLKSCVGLKIGDTVSFSIEAKVRGCPQEKEQSFTIKPVGFKDSLTVQVTFDCDCACQAFAQPSSPRCNNGNGTFECGVCRCDQGWLGSMCECSEEDYRPSQQEECSPKEGQPICSQRGECLCGQCVCHSSDFGKITGKYCECDDFSCVRYKGEMCSGHGQCNCGDCVCDSDWTGYYCNCTTRTDTCMSTNGLLCSGRGNCECGSCVCVQPGSYGDTCEKCPTCPDACSFKKECVECKKFNRGTLHEENTCSRYCRDDIEQVKELTDTGKNAVNCTYKNEDDCVVRFQYYEDTSGRAVLYVVEEPECPKGPDILVVLLSVMGAILLIGLATLLIWKLLITIHDRKEFAKFEEERARAKWDTANNPLYKEATSTFTNITYRGT

Target: T1, Flag-tagged EGFL7
Test: co-IP

| Molecule | binding |
| --- | --- |
| ITGAD-ITGB2 (from UniProt Q3V0T4 27-1168; P11835 24-771) (complex) | binds weakly |
| ITGAL-ITGB2, lymphocyte function-associated antigen 1 (LFA-1) (from UniProt P24063 24-1162; P11835 24-771) (complex) | binds |
| V5-tagged ITGB2 (from UniProt P11835 24-771) (receptor) | binds |
| B1 | binds |
